{
  "source": "patent US20130046134A1",
  "about": "“METHODS OF GENERATINGENGINEEREDINNERVATEDTISSUE AND USES THEREOF” (President and Fellows of Harvard College, priority 2010, published 2013)",
  "tested_on": "co-cultured cells (ventricular cardiomyocytes with cortical neurons)",
  "assay": "Effect of ion channel blockers on the action potentials of co-cultured cells (optical mapping)",
  "type": "cell-based, rat",
  "note": "For at least one compound, name, drawing or mass did not settle the structure.",
  "data": [
    {"smiles": "COC(=O)C1=C(C)NC(C)=C(C(=O)OC)C1c1ccccc1[N+](=O)[O-]", "note": "[Nifedipine]", "values": [
      {"measurement": "Observed effect on Co-culture Sub-pop 1", "setting": "action potential, co-culture sub-population 1, optical mapping", "value": "little to none"},
      {"measurement": "Observed effect on Co-culture Sub-pop 2", "setting": "action potential, co-culture sub-population 2, optical mapping", "value": "AP inhibition"},
      {"measurement": "Expected effect on mature AP", "setting": "predicted effect of channel blocker on mature action potential", "value": "little to none"},
      {"measurement": "Expected effect on neonatal AP", "setting": "predicted effect of channel blocker on neonatal action potential", "value": "AP inhibition"}
    ]}
  ]
}
